Article PMC8599684
Results are given in words; binding and its absence hold for the method and conditions named. In cells and extracts the contact can be indirect. Some binding calls cover weakened binding; strength is not graded here. Tags and fused reporters may be left off the sequences shown.

Sequences of proteins named here, by UniProt entry; tags and fusion partners are left off.
UniProt Q99728: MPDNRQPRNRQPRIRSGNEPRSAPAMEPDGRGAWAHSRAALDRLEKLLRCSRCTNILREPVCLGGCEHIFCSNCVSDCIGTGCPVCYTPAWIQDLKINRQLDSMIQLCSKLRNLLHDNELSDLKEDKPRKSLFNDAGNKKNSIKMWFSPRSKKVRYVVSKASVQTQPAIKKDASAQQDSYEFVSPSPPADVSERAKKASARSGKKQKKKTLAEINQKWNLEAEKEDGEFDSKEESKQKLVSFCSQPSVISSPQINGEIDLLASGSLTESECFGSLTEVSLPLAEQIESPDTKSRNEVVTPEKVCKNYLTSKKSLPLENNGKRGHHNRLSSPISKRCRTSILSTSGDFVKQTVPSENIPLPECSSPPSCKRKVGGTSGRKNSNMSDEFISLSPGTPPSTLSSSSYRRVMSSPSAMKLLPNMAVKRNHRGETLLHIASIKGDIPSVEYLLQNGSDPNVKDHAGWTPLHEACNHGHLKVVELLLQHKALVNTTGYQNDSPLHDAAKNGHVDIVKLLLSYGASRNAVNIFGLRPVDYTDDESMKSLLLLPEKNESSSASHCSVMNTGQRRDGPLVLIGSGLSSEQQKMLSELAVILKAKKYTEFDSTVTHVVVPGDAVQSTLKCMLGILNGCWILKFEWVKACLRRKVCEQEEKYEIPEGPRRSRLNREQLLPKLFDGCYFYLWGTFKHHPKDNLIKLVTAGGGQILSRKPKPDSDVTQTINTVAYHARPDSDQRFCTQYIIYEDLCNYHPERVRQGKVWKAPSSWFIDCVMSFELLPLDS

Target: Flag-BARD1 (WT) (UniProt Q99728)
Test: co-IP; HEK293T transfected with Vec, WT or deletion mutants of Flag-BARD1 together with GFP-RNF19A; Flag beads; immunoblot

B1: GFP-RNF19A (enzyme, UniProt Q9NV58 1-838)
chain: MQEQEIGFISKYNEGLCVNTDPVSILTSILDMSLHRQMGSDRDLQSSASSVSLPSVKKAPKKRRISIGSLFRRKKDNKRKSRELNGGVDGIASIESIHSEMCTDKNSIFSTNTSSDNGLTSISKQIGDFIECPLCLLRHSKDRFPDIMTCHHRSCVDCLRQYLRIEISESRVNISCPECTERFNPHDIRLILSDDVLMEKYEEFMLRRWLVADPDCRWCPAPDCGYAVIAFGCASCPKLTCGREGCGTEFCYHCKQIWHPNQTCDAARQERAQSLRLRTIRSSSISYSQESGAAADDIKPCPRCAAYIIKMNDGSCNHMTCAVCGCEFCWLCMKEISDLHYLSPSGCTFWGKKPWSRKKKILWQLGTLVGAPVGIALIAGIAIPAMIIGIPVYVGRKIHNRYEGKDVSKHKRNLAIAGGVTLSVIVSPVVAAVTVGIGVPIMLAYVYGVVPISLCRSGGCGVSAGNGKGVRIEFDDENDINVGGTNTAVDTTSVAEARHNPSIGEGSVGGLTGSLSASGSHMDRIGAIRDNLSETASTMALAGASITGSLSGSAMVNCFNRLEVQADVQKERYSLSGESGTVSLGTVSDNASTKAMAGSILNSYIPLDKEGNSMEVQVDIESKPSKFRHNSGSSSVDDGSATRSHAGGSSSGLPEGKSSATKWSKEATAGKKSKSGKLRKKGNMKINETREDMDAQLLEQQSTNSSEFEAPSLSDSMPSVADSHSSHFSEFSCSDLESMKTSCSHGSSDYHTRFATVNILPEVENDRLENSPHQCSISVVTQTASCSEVSQLNHIAEEHGNNGIKPNVDLYFGDALKETNNNHSHQTMELKVAIQTEI
With B1 the binding was “binds”.
